Experimental data: patent US20100190733A1, “Methods of Treating Muscular Dystrophies” (Primus Pharmaceuticals, Inc., priority 2009, published 2010)
At least one compound was matched to its structure with a doubt left.

Tests used:
[1] = test system: WT and mdx mice; experiment: Immunohistochemistry of biceps (myogenin, dMHC), Example 1; format: in vivo
[2] = test system: phospho-p38; experiment: Western blot of muscle, phospho-p38; format: in vivo, mice
[3] = test system: 5-LOX; experiment: Western blot of muscle, 5-LOX; format: in vivo, mice
[4] = test system: phospho-JNK-1; experiment: Western blot of muscle, phospho-JNK-1; format: in vivo, mice
[5] = test system: WT and mdx mice; experiment: Forelimb strength and fatigue by grip meter, Example 1; format: in vivo; settings: end of 5 weeks treatment vs baseline
Description: Five-week old mdx and WT mice were treated for 5 weeks with daily 100 μl intraperitoneal injections with either flavocoxid (a mixture of catechin and baicalin) (n=8, 5 mg/kg), methylprednisolone (n=8, 0.75 mg/Kg) or vehicle (n=8, 33% (v/v) dimethylsulphoxide (DMSO) in 0.9% NaCl). At the end of the experiments, animals were anaesthetized with intraperitoneal administration of sodium penthobarbital (80 mg/kg). Blood was then collected by intracardiac puncture and used to analyze creatine kinase (CK) levels. The biceps, quadriceps and extensor digitorum longus (EDL) muscles were removed bilaterally and immediately frozen in liquid nitrogen-cooled isopentane and stored at −80° C. for histological and biochemical evaluations.
Mice were weighed and examined for forelimb strength at baseline and after 5 weeks of treatment. Strength testing consisted of five separate measurements using a grip meter attached to a force transducer that measures peak force generated (Stoelting Co, Wooddale Ill., USA). Briefly, the mouse grabed the trapeze bar as it was pulled backward and the peak pull force in grams was recorded on a display upon release by the animal. The three highest measurements for each animal were averaged to give the strength score. The degree of fatigue was calculated by comparing the first two pulls to the last two pulls. […]

[6] = test system: WT and mdx mice; experiment: Histological studies of biceps muscle (H&E), Example 1; format: in vivo
[7] = test system: H2O2; experiment: Muscular hydrogen peroxide assay, Example 1; format: in vivo; settings: WT animals, muscle, compared with vehicle treated mice
[8] = mdx mice, biceps, vs vehicle-treated mdx mice
[9] = mdx mice muscle, vs vehicle-treated mdx mice
[10] = mdx mice, vs vehicle-treated mdx mice

C[C@H]1C[C@@H]2[C@H]([C@@H](O)C[C@@]3(C)[C@H]2CC[C@]3(O)C(=O)CO)[C@@]2(C)C=CC(=O)C=C12 [methylprednisolone]
number of myogenin-positive nuclei per mm^2 ([1]; mdx mice, biceps): did not modify
dMHC-positive fibers per mm^2 [1, 8]: did not modify
number of myogenin-positive SC per mm^2 [1, 8]: did not modify
number of myogenin-positive nuclei and satellite cells (SC) per mm^2 and dMHC-positive fibers per mm^2 ([1]; wild type animals): not modified
phospho-p38 expression ([2]; WT animals muscle): very low level of expression
phospho-p38 expression [2, 9]: significantly reduce
5-LOX expression ([3]; WT animals muscle): very low level of expression
5-LOX expression [3, 9]: significantly reduce
phospho-JNK-1 expression ([4]; WT animals muscle): very low level of expression
phospho-JNK-1 expression [4, 9]: significantly reduce
percentage of fatigue, change from baseline [5]: increased
strength normalized to weight compared with baseline values [5]: statistically significant increase in strength
necrotic area of biceps muscle [6, 10]: decrease in necrotic area
regenerating area of biceps muscle [6, 10]: increase in regenerating area
biceps muscle morphology ([6]; wild type animals): not modified
H2O2 content [7]: unchanged
